Article PMC9249204
No constants are given. Whether binding was seen depends on the method and setting. In cells and extracts the contact can be indirect.

By UniProt entry, the sequences of proteins in these tests, tags left out.
UniProt Q96PE2: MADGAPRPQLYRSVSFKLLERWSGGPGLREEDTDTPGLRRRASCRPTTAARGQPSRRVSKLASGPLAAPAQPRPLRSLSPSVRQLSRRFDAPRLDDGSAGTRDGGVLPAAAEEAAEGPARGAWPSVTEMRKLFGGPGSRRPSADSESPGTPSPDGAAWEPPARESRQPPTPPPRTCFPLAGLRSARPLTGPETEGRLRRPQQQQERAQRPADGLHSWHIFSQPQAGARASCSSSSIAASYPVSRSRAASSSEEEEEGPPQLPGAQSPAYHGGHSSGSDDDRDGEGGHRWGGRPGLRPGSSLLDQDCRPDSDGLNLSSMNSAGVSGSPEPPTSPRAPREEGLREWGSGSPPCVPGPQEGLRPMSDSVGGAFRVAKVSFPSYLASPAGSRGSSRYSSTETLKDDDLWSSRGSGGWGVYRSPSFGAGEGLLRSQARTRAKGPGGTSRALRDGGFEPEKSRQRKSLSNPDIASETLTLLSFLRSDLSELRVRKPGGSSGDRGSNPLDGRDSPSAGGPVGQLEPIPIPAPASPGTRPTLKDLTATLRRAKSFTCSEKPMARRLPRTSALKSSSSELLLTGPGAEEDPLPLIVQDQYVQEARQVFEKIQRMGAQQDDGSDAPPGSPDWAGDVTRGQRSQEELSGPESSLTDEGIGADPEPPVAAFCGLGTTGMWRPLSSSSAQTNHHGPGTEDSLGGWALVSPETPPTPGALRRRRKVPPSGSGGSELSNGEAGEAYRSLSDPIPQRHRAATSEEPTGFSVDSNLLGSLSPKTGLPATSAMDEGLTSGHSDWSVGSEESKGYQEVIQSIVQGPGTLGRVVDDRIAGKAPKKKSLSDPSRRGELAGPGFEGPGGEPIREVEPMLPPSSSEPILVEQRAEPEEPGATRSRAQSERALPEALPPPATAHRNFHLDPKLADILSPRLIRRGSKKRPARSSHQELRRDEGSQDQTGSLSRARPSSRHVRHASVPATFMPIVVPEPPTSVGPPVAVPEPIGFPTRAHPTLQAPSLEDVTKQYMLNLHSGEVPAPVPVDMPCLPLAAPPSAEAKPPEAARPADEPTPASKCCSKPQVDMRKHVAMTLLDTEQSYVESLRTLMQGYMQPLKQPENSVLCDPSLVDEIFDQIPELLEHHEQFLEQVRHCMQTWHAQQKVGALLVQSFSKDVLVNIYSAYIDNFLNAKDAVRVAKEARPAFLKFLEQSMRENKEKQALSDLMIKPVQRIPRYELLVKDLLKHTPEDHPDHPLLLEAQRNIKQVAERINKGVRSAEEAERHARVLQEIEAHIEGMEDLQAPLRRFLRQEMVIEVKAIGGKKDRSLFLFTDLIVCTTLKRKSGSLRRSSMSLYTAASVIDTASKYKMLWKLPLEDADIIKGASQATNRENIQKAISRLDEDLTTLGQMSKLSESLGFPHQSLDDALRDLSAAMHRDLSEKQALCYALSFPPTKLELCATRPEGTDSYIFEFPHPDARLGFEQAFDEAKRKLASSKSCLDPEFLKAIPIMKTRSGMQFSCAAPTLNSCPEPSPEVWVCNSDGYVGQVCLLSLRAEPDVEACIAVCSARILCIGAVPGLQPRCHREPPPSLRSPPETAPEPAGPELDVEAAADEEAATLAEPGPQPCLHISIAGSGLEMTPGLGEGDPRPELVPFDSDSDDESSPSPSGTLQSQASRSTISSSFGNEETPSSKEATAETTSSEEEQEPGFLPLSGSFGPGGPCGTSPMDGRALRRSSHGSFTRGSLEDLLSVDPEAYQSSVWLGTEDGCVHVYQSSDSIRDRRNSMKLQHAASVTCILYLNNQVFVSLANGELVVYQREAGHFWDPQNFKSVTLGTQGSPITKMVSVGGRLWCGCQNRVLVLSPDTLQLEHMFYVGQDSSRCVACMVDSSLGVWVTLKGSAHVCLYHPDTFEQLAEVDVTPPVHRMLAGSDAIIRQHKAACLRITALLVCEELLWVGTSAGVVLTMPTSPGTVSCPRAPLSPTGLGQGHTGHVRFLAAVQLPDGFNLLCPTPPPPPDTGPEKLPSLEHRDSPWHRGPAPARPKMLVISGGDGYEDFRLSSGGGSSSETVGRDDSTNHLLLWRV
UniProt Q14980: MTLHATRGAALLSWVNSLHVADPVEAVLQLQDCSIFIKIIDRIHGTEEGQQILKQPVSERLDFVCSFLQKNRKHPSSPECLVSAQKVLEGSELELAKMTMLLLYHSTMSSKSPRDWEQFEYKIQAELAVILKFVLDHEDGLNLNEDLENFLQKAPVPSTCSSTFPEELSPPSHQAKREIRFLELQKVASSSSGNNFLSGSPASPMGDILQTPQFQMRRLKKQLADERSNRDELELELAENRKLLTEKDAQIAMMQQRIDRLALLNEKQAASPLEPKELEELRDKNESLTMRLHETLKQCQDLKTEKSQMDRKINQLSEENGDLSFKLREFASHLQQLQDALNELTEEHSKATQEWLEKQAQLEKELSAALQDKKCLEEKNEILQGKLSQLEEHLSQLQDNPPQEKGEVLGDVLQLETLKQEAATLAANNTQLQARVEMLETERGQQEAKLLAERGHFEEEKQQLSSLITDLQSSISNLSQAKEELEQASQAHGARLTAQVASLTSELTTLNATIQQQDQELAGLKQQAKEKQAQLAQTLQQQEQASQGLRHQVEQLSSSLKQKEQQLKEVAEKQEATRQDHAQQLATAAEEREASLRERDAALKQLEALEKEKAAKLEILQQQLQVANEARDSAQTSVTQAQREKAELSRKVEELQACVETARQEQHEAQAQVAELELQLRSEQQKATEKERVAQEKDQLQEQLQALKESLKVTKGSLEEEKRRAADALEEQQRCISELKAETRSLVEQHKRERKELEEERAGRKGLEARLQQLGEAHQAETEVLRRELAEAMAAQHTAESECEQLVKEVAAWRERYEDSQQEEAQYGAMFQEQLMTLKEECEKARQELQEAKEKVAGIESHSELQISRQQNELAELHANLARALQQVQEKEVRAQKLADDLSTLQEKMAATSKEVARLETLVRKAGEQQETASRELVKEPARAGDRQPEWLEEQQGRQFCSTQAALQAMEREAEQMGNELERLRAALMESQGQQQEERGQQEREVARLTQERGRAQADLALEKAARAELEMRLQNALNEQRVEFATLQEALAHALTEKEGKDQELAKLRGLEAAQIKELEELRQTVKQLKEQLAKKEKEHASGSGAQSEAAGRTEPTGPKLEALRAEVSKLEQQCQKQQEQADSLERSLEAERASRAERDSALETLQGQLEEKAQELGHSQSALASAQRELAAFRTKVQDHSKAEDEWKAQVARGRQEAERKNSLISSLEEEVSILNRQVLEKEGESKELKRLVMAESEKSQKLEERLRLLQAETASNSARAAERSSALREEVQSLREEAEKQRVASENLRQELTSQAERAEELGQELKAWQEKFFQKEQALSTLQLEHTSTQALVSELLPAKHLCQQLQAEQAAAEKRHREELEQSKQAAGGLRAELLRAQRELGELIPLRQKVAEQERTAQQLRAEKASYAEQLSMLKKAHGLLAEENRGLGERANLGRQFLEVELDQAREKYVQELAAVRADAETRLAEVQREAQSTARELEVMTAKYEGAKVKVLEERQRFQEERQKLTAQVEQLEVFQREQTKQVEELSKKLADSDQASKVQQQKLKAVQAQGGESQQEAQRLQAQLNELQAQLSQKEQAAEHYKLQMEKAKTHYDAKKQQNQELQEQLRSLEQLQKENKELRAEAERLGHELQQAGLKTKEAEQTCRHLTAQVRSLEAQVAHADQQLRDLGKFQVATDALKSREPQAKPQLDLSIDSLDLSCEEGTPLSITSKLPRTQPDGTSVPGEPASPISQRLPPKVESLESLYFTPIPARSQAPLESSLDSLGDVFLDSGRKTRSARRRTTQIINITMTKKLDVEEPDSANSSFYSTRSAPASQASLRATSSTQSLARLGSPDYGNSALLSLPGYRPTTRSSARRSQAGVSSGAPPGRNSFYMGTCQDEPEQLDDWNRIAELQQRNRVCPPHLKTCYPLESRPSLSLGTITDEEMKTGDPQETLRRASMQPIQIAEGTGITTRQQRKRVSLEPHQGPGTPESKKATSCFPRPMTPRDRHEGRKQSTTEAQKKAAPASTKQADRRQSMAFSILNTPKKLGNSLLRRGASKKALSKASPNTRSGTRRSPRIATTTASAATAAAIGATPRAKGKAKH

Target: GFP-tagged TEM4 (ARHGEF17, Rho guanine nucleotide exchange factor 17) (human) (UniProt Q96PE2)
Assay: co-IP; anti-GFP immunoprecipitation from NP-40 whole cell lysates of HEK-293T cells transiently expressing GFP or GFP-TEM4, treated with 15 nM Taxol to synchronise in mitosis; immunoblot for NuMA; duplicate immunoprecipitants

binding: no binding
Substance: Nuclear Mitotic Apparatus Protein 1 (NuMA) (from UniProt Q14980 1-2115)
